Source: paper PMC12886529
No constants are given. Whether binding was seen depends on the method and setting. In cells and extracts the contact can be indirect. Some binding calls cover weakened binding; strength is not graded here. Where a sequence is shown, tags or fusion partners need not be part of it. Values belong to the molecule of their own block, whether it stands above or below them.

By UniProt entry, the sequences of proteins in these tests, tags left out.
UniProt P08670: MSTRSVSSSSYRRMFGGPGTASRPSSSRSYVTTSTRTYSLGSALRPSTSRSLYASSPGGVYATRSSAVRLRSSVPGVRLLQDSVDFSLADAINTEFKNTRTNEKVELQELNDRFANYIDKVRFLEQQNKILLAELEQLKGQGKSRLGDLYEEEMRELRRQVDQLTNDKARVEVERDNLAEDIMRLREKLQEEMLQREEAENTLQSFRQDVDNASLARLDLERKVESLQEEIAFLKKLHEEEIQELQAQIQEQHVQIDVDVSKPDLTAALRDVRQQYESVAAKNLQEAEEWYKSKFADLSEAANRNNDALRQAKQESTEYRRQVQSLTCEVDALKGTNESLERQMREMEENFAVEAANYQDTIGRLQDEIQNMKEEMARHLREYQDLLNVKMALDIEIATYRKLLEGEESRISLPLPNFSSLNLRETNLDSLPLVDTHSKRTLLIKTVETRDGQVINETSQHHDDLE

How the values were obtained:
[1] = molecular target: T1, CLCA4-Flag (chloride channel accessory 4) (UniProt Q14CN2); assay: co-IP; cell lysates in IP lysis buffer (50 mM Tris-HCl pH 7.4, 150 mM NaCl, 1% NP-40, 0.5% sodium deoxycholate, 0.1% SDS), antibody 2 h at 4 °C, protein A/G agarose; anti-Flag (CLCA4) or anti-HA (vimentin), normal IgG as negative control; Western blotting
T1 sequence: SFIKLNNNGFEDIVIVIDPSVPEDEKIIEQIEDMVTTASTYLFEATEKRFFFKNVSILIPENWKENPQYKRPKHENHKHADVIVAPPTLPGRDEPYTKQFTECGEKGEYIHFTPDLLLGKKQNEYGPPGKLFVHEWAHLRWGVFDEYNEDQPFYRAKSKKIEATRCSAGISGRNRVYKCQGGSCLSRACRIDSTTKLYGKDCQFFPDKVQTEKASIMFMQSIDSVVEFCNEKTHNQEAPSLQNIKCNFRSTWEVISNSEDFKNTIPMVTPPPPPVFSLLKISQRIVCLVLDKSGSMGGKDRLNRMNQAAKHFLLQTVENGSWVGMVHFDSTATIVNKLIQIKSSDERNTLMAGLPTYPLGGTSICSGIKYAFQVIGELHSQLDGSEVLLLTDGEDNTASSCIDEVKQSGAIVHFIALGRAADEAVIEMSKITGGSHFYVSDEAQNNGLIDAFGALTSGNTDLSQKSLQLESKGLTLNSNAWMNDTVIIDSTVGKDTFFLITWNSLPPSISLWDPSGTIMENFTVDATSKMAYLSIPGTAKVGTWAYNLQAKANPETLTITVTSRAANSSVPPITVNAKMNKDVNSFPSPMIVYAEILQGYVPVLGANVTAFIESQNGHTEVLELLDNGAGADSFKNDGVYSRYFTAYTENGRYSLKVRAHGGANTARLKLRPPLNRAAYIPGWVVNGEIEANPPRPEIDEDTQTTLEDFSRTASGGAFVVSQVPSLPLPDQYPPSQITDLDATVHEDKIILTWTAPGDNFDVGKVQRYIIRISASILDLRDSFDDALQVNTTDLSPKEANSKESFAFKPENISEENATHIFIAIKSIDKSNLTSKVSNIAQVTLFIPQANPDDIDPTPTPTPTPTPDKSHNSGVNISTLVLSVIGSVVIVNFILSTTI

[2] = molecular target: vimentin-HA (UniProt P08670); assay: as above

- binding [1]: binds
Molecule: vimentin (found in the immunoprecipitate of CLCA4) (from UniProt P08670 1-466)

- binding [2]: binds
B1: CLCA4-Flag (chloride channel accessory 4) (protein, UniProt Q14CN2 22-919)
chain: T1 sequence
